The nature of this data set: Estimation of Cysteine and Histidine in human blood plasma with reagent R and NEM.

For `N[C@@H](CS)C(=O)O` [cysteine], the “actual [Cys] in HBP sample” value (human blood plasma, difference CT−CHis) is 239 ± 7.5 µM.

Take `N[C@@H](Cc1c[nH]cn1)C(=O)O` [Histidine]: the “actual [Histidine] in HBP sample (CHis)” value (human blood plasma pre-treated with NEM, spiked with 200 and 300 μM His) is recorded as 23±2.1 LM. For the same compound, the “CHis in HBP sample” value (human blood plasma, mean of [His]1 and [His]2, three independent evaluations) is 23 ± 2.1 µM.

These data come from US10155776B2, “Method for selective detection and estimation of histidine and cystein” (Council of Scientific and Industrial Research, priority 2014, dated 2018).
